Assay results published in paper PMC7010731.
No constants are given. Whether binding was seen depends on the method and setting. In cells and extracts the contact can be indirect. Some binding calls cover weakened binding; strength is not graded here.

Experiments:
[1] = molecular target: T1, seven in absentia homolog 2 (SIAH2) (human (endogenous in 293T)) (UniProt O43255); experiment: co-IP; lysates of 293T cells (Pierce IP lysis buffer); tosylactivated dynabeads coupled with 1 µg antibody to SIAH2 or to HO-1, control IgGs; IP buffer with 5 µM lactacystin; washed three times with PBS, 0.1% Triton X-100; immunoblotting
T1 sequence: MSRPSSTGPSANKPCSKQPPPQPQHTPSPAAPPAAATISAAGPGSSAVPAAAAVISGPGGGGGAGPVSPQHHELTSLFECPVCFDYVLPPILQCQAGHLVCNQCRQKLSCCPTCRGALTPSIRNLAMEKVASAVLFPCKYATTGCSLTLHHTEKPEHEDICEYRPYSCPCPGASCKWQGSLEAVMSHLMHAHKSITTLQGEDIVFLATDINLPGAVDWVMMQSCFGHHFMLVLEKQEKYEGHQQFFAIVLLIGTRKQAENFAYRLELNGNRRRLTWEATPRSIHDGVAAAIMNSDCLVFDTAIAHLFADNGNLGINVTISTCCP

[2] = molecular target: T2, heme oxygenase-1 (HO-1) (human (endogenous in 293T)) (UniProt P09601); experiment: as above
T2 sequence: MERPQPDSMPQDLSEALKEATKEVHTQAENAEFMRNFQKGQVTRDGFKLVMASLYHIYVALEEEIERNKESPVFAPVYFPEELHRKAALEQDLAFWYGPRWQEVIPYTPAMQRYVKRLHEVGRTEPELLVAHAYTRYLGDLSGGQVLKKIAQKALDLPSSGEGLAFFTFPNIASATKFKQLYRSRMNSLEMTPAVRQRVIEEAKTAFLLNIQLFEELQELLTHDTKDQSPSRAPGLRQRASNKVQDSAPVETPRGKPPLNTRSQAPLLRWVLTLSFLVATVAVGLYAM

B1: heme oxygenase-1 (HO-1) (protein, UniProt P09601 1-288)
chain: MERPQPDSMPQDLSEALKEATKEVHTQAENAEFMRNFQKGQVTRDGFKLVMASLYHIYVALEEEIERNKESPVFAPVYFPEELHRKAALEQDLAFWYGPRWQEVIPYTPAMQRYVKRLHEVGRTEPELLVAHAYTRYLGDLSGGQVLKKIAQKALDLPSSGEGLAFFTFPNIASATKFKQLYRSRMNSLEMTPAVRQRVIEEAKTAFLLNIQLFEELQELLTHDTKDQSPSRAPGLRQRASNKVQDSAPVETPRGKPPLNTRSQAPLLRWVLTLSFLVATVAVGLYAM
In the case of B1, the binding [1] is reported as “binds”.

B2: seven in absentia homolog 2 (SIAH2) (protein, UniProt O43255 1-324)
chain: MSRPSSTGPSANKPCSKQPPPQPQHTPSPAAPPAAATISAAGPGSSAVPAAAAVISGPGGGGGAGPVSPQHHELTSLFECPVCFDYVLPPILQCQAGHLVCNQCRQKLSCCPTCRGALTPSIRNLAMEKVASAVLFPCKYATTGCSLTLHHTEKPEHEDICEYRPYSCPCPGASCKWQGSLEAVMSHLMHAHKSITTLQGEDIVFLATDINLPGAVDWVMMQSCFGHHFMLVLEKQEKYEGHQQFFAIVLLIGTRKQAENFAYRLELNGNRRRLTWEATPRSIHDGVAAAIMNSDCLVFDTAIAHLFADNGNLGINVTISTCCP
B2 was tested, and the binding [2] was “binds”.
